Data reported in publication PMC5515355, “Frizzled 7 and PIP2 binding by syntenin PDZ2 domain supports Frizzled 7 trafficking and signalling” (Nature Communications, 2016).
No constants are given. Whether binding was seen depends on the method and setting.

How the values were obtained:
[1] = target: syntenin PDZ2 domain (residues 196-275), wild type (human) (UniProt O00560); test: SEC-MALS; Shodex KW402.5-4F column, 0.2 ml per min, PBS buffer; Dawn Heleos II MALS detector; both purified
[2] = target: syntenin PDZ2 domain (residues 196-275), mutant K214A/K250A (human) (UniProt O00560); test: as above
[3] = target: syntenin PDZ2 domain (residues 196-275), wild type (human) (UniProt O00560); test: SEC; analytical SEC, Superdex 75 10/300 GL, 25 mM HEPES, 150 mM NaCl, pH 7.4; elution at 14 ml, ~10 kDa; both purified

B1: syntenin PDZ2 domain (residues 196-275), wild type (domain or fragment, UniProt O00560 196-275)
chain: ERTITMHKDSTGHVGFIFKNGKITSIVKDSSAARNGLLTEHNICEINGQNVIGLKDSQIADILSTSGTVVTITIMPAFIF
binding [1]: no binding

B2: syntenin PDZ2 domain (residues 196-275), mutant K214A/K250A (domain or fragment, UniProt O00560 196-275)
chain: ERTITMHKDSTGHVGFIFANGKITSIVKDSSAARNGLLTEHNICEINGQNVIGLADSQIADILSTSGTVVTITIMPAFIF
binding [2]: no binding

B3: syntenin PDZ2 domain (residues 196–275), wild type (domain or fragment, UniProt O00560 196-275)
chain: ERTITMHKDSTGHVGFIFKNGKITSIVKDSSAARNGLLTEHNICEINGQNVIGLKDSQIADILSTSGTVVTITIMPAFIF
binding [3]: no binding
